From article PMC10940162
Results are given in words; binding and its absence hold for the method and conditions named. Some results given as binding are weak or reduced against the parent protein; the word gives no strength.

Molecular target: GFP–EB3 (UniProt Q9UPY8)
Assay: in vitro reconstitution with TIRF microscopy; microtubules grown from GMPCPP-stabilized seeds; 25 nM mCherry–CDK5RAP2, 20 nM GFP–EB3, 15 µM tubulin, 50 mM KCl, MRB80, 30 °C; both purified

binding: binds
Substance: mCherry–CDK5RAP2 (from UniProt Q96SN8 1-1893)
